PubChem BioAssay AID1259266, Sanger Institute | 2017

Assay: 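Search kinases and colorectal cancer genes for essential genes and drug synergy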 (primary screen)
Cell system: LS123 human colorectal cancer cells
Reagent: siRNA pool against human genes
Challenge: anchor drugs BYL719 (1 µM), cetuximab (5 µg/ml) or trametinib (10 nM), each chosen to barely slow growth alone; DMSO vehicle as the drug-free arm
Detection: 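Replicate-averaged viability scaled to non-targeting pools, robust z-score for siRNA alone, and a synergy score per anchor drug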
Reading the numbers: robust z-score, knock-down alone: higher = more cells surviving after knock-down
Call rule: 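Essential when the robust z-score of the knock-down alone is below -3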
Calls: active = essential (knock-down alone cuts viability); inactive = no change
The whole screen tested 794 reagents; shown is an unselected part. 16 of all reagents (2%) were called active. 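Calls reflect knock-down alone, not drug synergy; viability seems capped at 1 and z-scores at 0.585.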 A number with no mark means an inactive call. Further read-outs or replicates are left out here. No sequences are given here. The record does not give: the amount of reagent, the time to read-out.

gene | PubChem SID | robust z-score, knock-down alone
NRK | SID152149639 | -0.252
ERBB3 | SID135620617 | -1.17
MYLK2 | SID56479029 | -2.03
DLG1 | SID152148481 | 0.585
BUB1B | SID152154799 | -1.42
HIPK4 | SID135620890 | 0.585
PIK3C3 | SID134310831 | 0.585
ROR2 | SID56478550 | 0.585
PI4KB | SID135621252 | 0.585
CSK | SID56478490 | 0.585
FBXW7 | SID152153107 | 0.585
EPHA3 | SID152156000 | 0.252
AURKC | SID152150186 | -4.37 (active)
CLK3 | SID56478875 | -0.418
STRADB | SID135620967 | 0.585
CDC73 | SID134319235 | -1.91
CSNK2B | SID56479183 | -0.365
PKN1 | SID56478783 | 0.585
RNASEL | SID56478962 | 0.585
CDADC1 | SID56479191 | 0.585
BRAF | SID152153735 | -0.27
TPK1 | SID135621256 | -0.817
KSR2 | SID152149204 | 0.14
LIMK2 | SID152148517 | 0.585
PHKG1 | SID152147540 | 0.585
CSNK1A1L | SID135620867 | 0.585
BRD3 | SID135620912 | 0.585
GSK3A | SID56478467 | -1.38
CERK | SID152152071 | 0.585
EPHB1 | SID152152600 | -1.5
STK38L | SID152156064 | -0.723
PAK1 | SID135620692 | -3.3 (active)
MAPK15 | SID152151405 | 0.585
PHKG2 | SID135620902 | 0.585
FOXP1 | SID135620800 | -1.65
PRKCZ | SID56478675 | 0.0147
STK39 | SID152151246 | -2.41
MYH10 | SID134325581 | 0.585
CDK5R2 | SID56479219 | 0.585
NR4A2 | SID134309878 | -1.4
ULK4 | SID152148607 | 0.585
CSF1R | SID152152485 | -0.774
CDK8 | SID56478602 | 0.585
IRAK2 | SID152151590 | 0.585
DYRK1B | SID56478878 | -0.272
STYK1 | SID56478493 | -3.42 (active)
MED24 | SID152152726 | 0.585
ASPM | SID135623115 | 0.585
TSSK2 | SID56479050 | -2.07
GK | SID56479100 | 0.585
